PubChem BioAssay AID1259254 – NCATS | 2017

Aim: 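Gene knock-downs that lead to re-replication, shown by excess G2 DNA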 (primary screen)
Cells: human HCT116 colorectal cancer cells
Reagents: single siRNA against human genes
Time to read-out: 3 days
Measurement: 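Nuclei stained with Hoechst and imaged; cell-cycle phase assigned by DNA content; G2 share scaled per plate, non-targeting siRNA 0%, GMNN siRNA 100%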
Scale: G2 robust z-score and G2 cells, % of GMNN control: higher = more G2 cells, more excess DNA replication; raw share of cells in G2: higher = larger share of cells with G2 DNA content
Active means: 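Active siRNAs have a G2 robust z of 5 or more median absolute deviations over the median, which in these data means about 38% or higher of GMNN control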
This is one part, drawn at random, of about 59,000 deposited reagents. About 1,550 of all reagents (2.6%) count as active. 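G2 share is only a proxy for re-replication; each gene was hit by three separate siRNAs, and active genes were retested.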 Raw values vary from plate to plate and are shown uncorrected. Reagents against one gene are numbered here. Reagent sequences are not shown. Not given: the amount of reagent.

| gene | siRNA no. | G2 robust z-score | G2 cells, % of GMNN control | raw share of cells in G2 (%) | activity call |
| --- | --- | --- | --- | --- | --- |
| SPINDOC | 1 | 1.17 | 11.2 | 7.58 | inactive |
| SPINDOC | 2 | 2.24 | 18.7 | 8.7 | inactive |
| SPINDOC | 3 | 1.35 | 12.4 | 7.41 | inactive |
| THTPA | 1 | -0.568 | -1.03 | 4.13 | inactive |
| THTPA | 2 | 0.151 | 4.03 | 6.41 | inactive |
| THTPA | 3 | 0.167 | 4.14 | 3.79 | inactive |
| CERS6 | 1 | 2.32 | 19.3 | 10.6 | inactive |
| CERS6 | 2 | 0.276 | 4.91 | 4.81 | inactive |
| CERS6 | 3 | 1.77 | 15.5 | 8.12 | inactive |
| ABRACL | 1 | 3.03 | 24.3 | 13.9 | inactive |
| ABRACL | 2 | -0.388 | 0.239 | 4.57 | inactive |
| ABRACL | 3 | -0.14 | 1.98 | 3.66 | inactive |
| ZFHX3 | 1 | 0.266 | 4.84 | 6.37 | inactive |
| ZFHX3 | 2 | -0.581 | -1.12 | 4.67 | inactive |
| ZFHX3 | 3 | -0.468 | -0.327 | 3.87 | inactive |
| OMG | 1 | 1.46 | 13.3 | 10.2 | inactive |
| OMG | 2 | 0.446 | 6.1 | 7.23 | inactive |
| OMG | 3 | -1.01 | -4.13 | 1.79 | inactive |
| CDKN2B | 1 | -0.0855 | 2.37 | 4.91 | inactive |
| CDKN2B | 2 | -1.22 | -5.58 | 2.97 | inactive |
| CDKN2B | 3 | 0.418 | 5.91 | 7.15 | inactive |
| LOC730961 (retired record) | 1 | 0.997 | 9.98 | 7.58 | inactive |
| LOC730961 (retired record) | 2 | -1.16 | -5.19 | 1.36 | inactive |
| LOC730961 (retired record) | 3 | -0.932 | -3.59 | 2.16 | inactive |
| TAF9 | 1 | 1.42 | 13 | 7.41 | inactive |
| TAF9 | 2 | -1.5 | -7.56 | 2.34 | inactive |
| TAF9 | 3 | 0.176 | 4.21 | 5.57 | inactive |
| MYLK | 1 | -0.39 | 0.222 | 5.68 | inactive |
| MYLK | 2 | -0.897 | -3.34 | 4.28 | inactive |
| MYLK | 3 | -0.616 | -1.36 | 3.54 | inactive |
| CWF19L2 | 1 | 1.26 | 11.9 | 7.8 | inactive |
| CWF19L2 | 2 | -0.116 | 2.15 | 3.58 | inactive |
| CWF19L2 | 3 | -0.729 | -2.16 | 2.31 | inactive |
| DELE1 | 1 | 1.15 | 11.1 | 10.3 | inactive |
| DELE1 | 2 | 3.18 | 25.3 | 14.5 | inactive |
| DELE1 | 3 | 0.0861 | 3.57 | 4.71 | inactive |
| DNAJC21 | 1 | -0.636 | -1.51 | 3.61 | inactive |
| DNAJC21 | 2 | -0.0431 | 2.66 | 3.95 | inactive |
| DNAJC21 | 3 | -0.106 | 2.22 | 3.38 | inactive |
| SULT2B1 | 1 | -1.29 | -6.1 | 3.63 | inactive |
| SULT2B1 | 2 | 1.47 | 13.3 | 8.37 | inactive |
| SULT2B1 | 3 | -0.718 | -2.09 | 3.83 | inactive |
| CCDC60 | 1 | 0.237 | 4.63 | 5.26 | inactive |
| CCDC60 | 2 | 0.0603 | 3.39 | 4.1 | inactive |
| CCDC60 | 3 | 2.57 | 21 | 9.41 | inactive |
| CHIC1 | 1 | -0.402 | 0.138 | 3.24 | inactive |
| CHIC1 | 2 | 8.27 | 61.1 | 25.5 | active |
| CHIC1 | 3 | -0.877 | -3.2 | 2.92 | inactive |
| ARL5B | 1 | -0.781 | -2.53 | 4.75 | inactive |
| ARL5B | 2 | -0.79 | -2.59 | 3.75 | inactive |
| ARL5B | 3 | -1.2 | -5.48 | 2.4 | inactive |
| TRMO | 1 | 3.84 | 30 | 14.3 | inactive |
| TRMO | 2 | 0.461 | 6.21 | 6.89 | inactive |
| TRMO | 3 | -0.373 | 0.344 | 3.31 | inactive |
| MFAP4 | 1 | -0.263 | 1.12 | 3.9 | inactive |
| MFAP4 | 2 | -1.48 | -7.46 | 1.35 | inactive |
| MFAP4 | 3 | 0.935 | 9.55 | 6.57 | inactive |
| STK35 | 1 | -0.843 | -2.96 | 4.67 | inactive |
| STK35 | 2 | 1.61 | 14.3 | 10.4 | inactive |
| STK35 | 3 | -0.945 | -3.68 | 2.5 | inactive |
| DNAJC12 | 1 | -0.761 | -2.38 | 1.95 | inactive |
| DNAJC12 | 2 | 1.64 | 14.5 | 12.5 | inactive |
| DNAJC12 | 3 | -0.352 | 0.493 | 3.79 | inactive |
| LYZL6 | 1 | 0.797 | 8.58 | 5.75 | inactive |
| LYZL6 | 2 | 0.149 | 4.02 | 5.93 | inactive |
| LYZL6 | 3 | 0.902 | 9.31 | 8.91 | inactive |
| TMEM17 | 1 | 0.265 | 4.83 | 5.33 | inactive |
| TMEM17 | 2 | -0.949 | -3.71 | 1.71 | inactive |
| TMEM17 | 3 | 2.51 | 20.7 | 9.29 | inactive |

Reprinted from the entries so far (7 entries):
| gene | siRNA no. | G2 robust z-score | G2 cells, % of GMNN control | raw share of cells in G2 (%) | activity call |
| --- | --- | --- | --- | --- | --- |
| CDKN2B | 2 | -1.22 | -5.58 | 2.97 | inactive |
| CDKN2B | 3 | 0.418 | 5.91 | 7.15 | inactive |
| LOC730961 (retired record) | 1 | 0.997 | 9.98 | 7.58 | inactive |
| LOC730961 (retired record) | 2 | -1.16 | -5.19 | 1.36 | inactive |
| LOC730961 (retired record) | 3 | -0.932 | -3.59 | 2.16 | inactive |
| TAF9 | 1 | 1.42 | 13 | 7.41 | inactive |
| TAF9 | 2 | -1.5 | -7.56 | 2.34 | inactive |
